{"source": "PubChem BioAssay AID1259308 (NCATS, 2017)", "aim": "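Genes whose loss raises luciferase production in HEK293 cells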 (primary screen)", "system": "human HEK293 embryonic kidney cells stably expressing firefly luciferase (HEK-CMV-Luc2-Hygro)", "reagent": "single siRNA against human genes, 0.8 pmol siRNA per well", "time to read-out": "72 h", "detection": "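Reporter luminescence and viable-cell signal on separate replicate plates, given as percent of non-targeting control and median/MAD z-scores, plus per-cell luciferase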", "direction": "total luciferase, z-score: higher = more reporter protein produced", "active means": "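An siRNA counts as active if its total luciferase robust z-score exceeds 3; genes with two or more such siRNAs out of three were retested with fresh siRNAs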", "calls": "active = raised luciferase; inactive = no rise", "note": "This is a random part of about 59,000 deposited reagents. About 1,510 of all reagents (2.6%) count as active. 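Calls use total luciferase alone and ignore viability, so some active siRNAs may act by altering cell number.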 Reagents against one gene are numbered here. Not all columns of the deposit are shown."}
{"gene symbol": "LIPJ (lipase family member J)", "reagent no.": 1, "total luciferase, z-score": 0.904, "outcome": "inactive"}
{"gene symbol": "LIPJ (lipase family member J)", "reagent no.": 2, "total luciferase, z-score": -0.451, "outcome": "inactive"}
{"gene symbol": "LIPJ (lipase family member J)", "reagent no.": 3, "total luciferase, z-score": 0.463, "outcome": "inactive"}
{"gene symbol": "CLUL1 (clusterin like 1)", "reagent no.": 1, "total luciferase, z-score": -0.0152, "outcome": "inactive"}
{"gene symbol": "CLUL1 (clusterin like 1)", "reagent no.": 2, "total luciferase, z-score": -0.326, "outcome": "inactive"}
{"gene symbol": "CLUL1 (clusterin like 1)", "reagent no.": 3, "total luciferase, z-score": -0.127, "outcome": "inactive"}
{"gene symbol": "SLC22A31", "reagent no.": 1, "total luciferase, z-score": 0.158, "outcome": "inactive"}
{"gene symbol": "SLC22A31", "reagent no.": 2, "total luciferase, z-score": -0.00464, "outcome": "inactive"}
{"gene symbol": "SLC22A31", "reagent no.": 3, "total luciferase, z-score": 2.67, "outcome": "inactive"}
{"gene symbol": "SPTBN5 (spectrin beta, non-erythrocytic 5)", "reagent no.": 1, "total luciferase, z-score": -0.0389, "outcome": "inactive"}
{"gene symbol": "SPTBN5 (spectrin beta, non-erythrocytic 5)", "reagent no.": 2, "total luciferase, z-score": 1.9, "outcome": "inactive"}
{"gene symbol": "SPTBN5 (spectrin beta, non-erythrocytic 5)", "reagent no.": 3, "total luciferase, z-score": 1.42, "outcome": "inactive"}
{"gene symbol": "CYP11A1 (cytochrome P450 family 11 subfamily A member 1)", "reagent no.": 1, "total luciferase, z-score": 0.897, "outcome": "inactive"}
{"gene symbol": "CYP11A1 (cytochrome P450 family 11 subfamily A member 1)", "reagent no.": 2, "total luciferase, z-score": -1.1, "outcome": "inactive"}
{"gene symbol": "CYP11A1 (cytochrome P450 family 11 subfamily A member 1)", "reagent no.": 3, "total luciferase, z-score": 3.52, "outcome": "active"}
{"gene symbol": "COPG2 (coat protein complex I subunit gamma 2)", "reagent no.": 1, "total luciferase, z-score": -0.89, "outcome": "inactive"}
{"gene symbol": "COPG2 (coat protein complex I subunit gamma 2)", "reagent no.": 2, "total luciferase, z-score": 0.914, "outcome": "inactive"}
{"gene symbol": "COPG2 (coat protein complex I subunit gamma 2)", "reagent no.": 3, "total luciferase, z-score": 1.57, "outcome": "inactive"}
{"gene symbol": "B4GALNT1 (beta-1,4-N-acetyl-galactosaminyltransferase 1)", "reagent no.": 1, "total luciferase, z-score": 0.426, "outcome": "inactive"}
{"gene symbol": "B4GALNT1 (beta-1,4-N-acetyl-galactosaminyltransferase 1)", "reagent no.": 2, "total luciferase, z-score": -0.943, "outcome": "inactive"}
{"gene symbol": "B4GALNT1 (beta-1,4-N-acetyl-galactosaminyltransferase 1)", "reagent no.": 3, "total luciferase, z-score": 0.829, "outcome": "inactive"}
{"gene symbol": "FAM9B (family with sequence similarity 9 member B)", "reagent no.": 1, "total luciferase, z-score": 0.798, "outcome": "inactive"}
{"gene symbol": "FAM9B (family with sequence similarity 9 member B)", "reagent no.": 2, "total luciferase, z-score": 2.66, "outcome": "inactive"}
{"gene symbol": "FAM9B (family with sequence similarity 9 member B)", "reagent no.": 3, "total luciferase, z-score": 0.808, "outcome": "inactive"}
{"gene symbol": "TERF2IP (TERF2 interacting protein)", "reagent no.": 1, "total luciferase, z-score": 0.54, "outcome": "inactive"}
{"gene symbol": "TERF2IP (TERF2 interacting protein)", "reagent no.": 2, "total luciferase, z-score": -0.116, "outcome": "inactive"}
{"gene symbol": "TERF2IP (TERF2 interacting protein)", "reagent no.": 3, "total luciferase, z-score": 0.532, "outcome": "inactive"}
{"gene symbol": "FAM43B (family with sequence similarity 43 member B)", "reagent no.": 1, "total luciferase, z-score": -0.28, "outcome": "inactive"}
{"gene symbol": "FAM43B (family with sequence similarity 43 member B)", "reagent no.": 2, "total luciferase, z-score": -2.37, "outcome": "inactive"}
{"gene symbol": "FAM43B (family with sequence similarity 43 member B)", "reagent no.": 3, "total luciferase, z-score": 0.293, "outcome": "inactive"}
{"gene symbol": "PEX6 (peroxisomal biogenesis factor 6)", "reagent no.": 1, "total luciferase, z-score": -1.87, "outcome": "inactive"}
{"gene symbol": "PEX6 (peroxisomal biogenesis factor 6)", "reagent no.": 2, "total luciferase, z-score": -1.5, "outcome": "inactive"}
{"gene symbol": "PEX6 (peroxisomal biogenesis factor 6)", "reagent no.": 3, "total luciferase, z-score": 1.51, "outcome": "inactive"}

Called active, of those listed so far:
{"gene symbol": "CYP11A1 (cytochrome P450 family 11 subfamily A member 1)", "reagent no.": 3, "total luciferase, z-score": 3.52, "outcome": "active"}
